Reference: article PMC11695203, “A new peptide inhibitor of C1QBP exhibits potent anti‐tumour activity against triple negative breast cancer by impairing mitochondrial function and suppressing homologous recombination repair” (Clinical and Translational Medicine, 2025)

By UniProt entry, the sequences of proteins in these tests, tags left out. Residues count along the entry.
UniProt Q07021, residues 74-282: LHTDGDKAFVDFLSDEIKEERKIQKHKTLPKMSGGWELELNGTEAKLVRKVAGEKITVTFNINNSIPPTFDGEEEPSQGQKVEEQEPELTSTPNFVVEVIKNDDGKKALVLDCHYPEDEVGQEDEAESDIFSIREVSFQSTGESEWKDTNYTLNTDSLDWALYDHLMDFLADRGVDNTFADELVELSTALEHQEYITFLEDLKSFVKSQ

T1: biotin-labelled PDBAG1 (human (peptide identified in patients' adipose tissue))
T1 sequence (peptide, biotin label (position not stated)): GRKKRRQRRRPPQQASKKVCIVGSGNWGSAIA

B1: DHX57 (endogenous) (protein, UniProt Q6P158 1-1386)
chain: MSSSVRRKGKPGKGGGKGSSRGGRGGRSHASKSHGSGGGGGGGGGGGGGNRKASSRIWDDGDDFCIFSESRRPSRPSNSNISKGESRPKWKPKAKVPLQTLHMTSENQEKVKALLRDLQEQDADAGSERGLSGEEEDDEPDCCNDERYWPAGQEPSLVPDLDPLEYAGLASVEPYVPEFTVSPFAVQKLSRYGFNTERCQAVLRMCDGDVGASLEHLLTQCFSETFGERMKISEAVNQISLDECMEQRQEEAFALKSICGEKFIERIQNRVWTIGLELEYLTSRFRKSKPKESTKNVQENSLEICKFYLKGNCKFGSKCRFKHEVPPNQIVGRIERSVDDSHLNAIEDASFLYELEIRFSKDHKYPYQAPLVAFYSTNENLPLACRLHISEFLYDKALTFAETSEPVVYSLITLLEEESEIVKLLTNTHHKYSDPPVNFLPVPSRTRINNPACHKTVIPNNSFVSNQIPEVEKASESEESDEDDGPAPVIVENESYVNLKKKISKRYDWQAKSVHAENGKICKQFRMKQASRQFQSILQERQSLPAWEERETILNLLRKHQVVVISGMTGCGKTTQIPQFILDDSLNGPPEKVANIICTQPRRISAISVAERVAKERAERVGLTVGYQIRLESVKSSATRLLYCTTGVLLRRLEGDTALQGVSHIIVDEVHERTEESDFLLLVLKDIVSQRPGLQVILMSATLNAELFSDYFNSCPVITIPGRTFPVDQFFLEDAIAVTRYVLQDGSPYMRSMKQISKEKLKARRNRTAFEEVEEDLRLSLHLQDQDSVKDAVPDQQLDFKQLLARYKGVSKSVIKTMSIMDFEKVNLELIEALLEWIVDGKHSYPPGAILVFLPGLAEIKMLYEQLQSNSLFNNRRSNRCVIHPLHSSLSSEEQQAVFVKPPAGVTKIIISTNIAETSITIDDVVYVIDSGKMKEKRYDASKGMESLEDTFVSQANALQRKGRAGRVASGVCFHLFTSHHYNHQLLKQQLPEIQRVPLEQLCLRIKILEMFSAHNLQSVFSRLIEPPHTDSLRASKIRLRDLGALTPDERLTPLGYHLASLPVDVRIGKLMLFGSIFRCLDPALTIAASLAFKSPFVSPWDKKEEANQKKLEFAFANSDYLALLQAYKGWQLSTKEGVRASYNYCRQNFLSGRVLQEMASLKRQFTELLSDIGFAREGLRAREIEKRAQGGDGVLDATGEEANSNAENPKLISAMLCAALYPNVVQVKSPEGKFQKTSTGAVRMQPKSAELKFVTKNDGYVHIHPSSVNYQVRHFDSPYLLYHEKIKTSRVFIRDCSMVSVYPLVLFGGGQVNVQLQRGEFVVSLDDGWIRFVAASHQVAELVKELRCELDQLLQDKIKNPSIDLCTCPRGSRIISTIVKLVTTQ
B2: MYBBP1 (endogenous) (protein, UniProt Q9BQG0 1-1328)
chain: MESRDPAQPMSPGEATQSGARPADRYGLLKHSREFLDFFWDIAKPEQETRLAATEKLLEYLRGRPKGSEMKYALKRLITGLGVGRETARPCYSLALAQLLQSFEDLPLCSILQQIQEKYDLHQVKKAMLRPALFANLFGVLALFQSGRLVKDQEALMKSVKLLQALAQYQNHLQEQPRKALVDILSEVSKATLQEILPEVLKADLNIILSSPEQLELFLLAQQKVPSKLKKLVGSVNLFSDENVPRLVNVLKMAASSVKKDRKLPAIALDLLRLALKEDKFPRFWKEVVEQGLLKMQFWPASYLCFRLLGAALPLLTKEQLHLVMQGDVIRHYGEHVCTAKLPKQFKFAPEMDDYVGTFLEGCQDDPERQLAVLVAFSSVTNQGLPVTPTFWRVVRFLSPPALQGYVAWLRAMFLQPDLDSLVDFSTNNQKKAQDSSLHMPERAVFRLRKWIIFRLVSIVDSLHLEMEEALTEQVARFCLFHSFFVTKKPTSQIPETKHPFSFPLENQAREAVSSAFFSLLQTLSTQFKQAPGQTQGGQPWTYHLVQFADLLLNHSHNVTTVTPFTAQQRQAWDRMLQTLKELEAHSAEARAAAFQHLLLLVGIHLLKSPAESCDLLGDIQTCIRKSLGEKPRRSRTKTIDPQEPPWVEVLVEILLALLAQPSHLMRQVARSVFGHICSHLTPRALQLILDVLNPETSEDENDRVVVTDDSDERRLKGAEDKSEEGEDNRSSESEEESEGEESEEEERDGDVDQGFREQLMTVLQAGKALGGEDSENEEELGDEAMMALDQSLASLFAEQKLRIQARRDEKNKLQKEKALRRDFQIRVLDLVEVLVTKQPENALVLELLEPLLSIIRRSLRSSSSKQEQDLLHKTARIFTHHLCRARRYCHDLGERAGALHAQVERLVQQAGRQPDSPTALYHFNASLYLLRVLKGNTAEGCVHETQEKQKAGTDPSHMPTGPQAASCLDLNLVTRVYSTALSSFLTKRNSPLTVPMFLSLFSRHPVLCQSLLPILVQHITGPVRPRHQACLLLQKTLSMREVRSCFEDPEWKQLMGQVLAKVTENLRVLGEAQTKAQHQQALSSLELLNVLFRTCKHEKLTLDLTVLLGVLQGQQQSLQQGAHSTGSSRLHDLYWQAMKTLGVQRPKLEKKDAKEIPSATQSPISKKRKKKGFLPETKKRKKRKSEDGTPAEDGTPAATGGSQPPSMGRKKRNRTKAKVPAQANGTPTTKSPAPGAPTRSPSTPAKSPKLQKKNQKPSQVNGAPGSPTEPAGQKQHQKALPKKGVLGKSPLSALARKKARLSLVIRSPSLLQSGAKKKAQVRKAGKP
B3: TCOF1 (endogenous) (protein, UniProt Q13428 1-1488)
chain: MAEARKRRELLPLIYHHLLRAGYVRAAREVKEQSGQKCFLAQPVTLLDIYTHWQQTSELGRKRKAEEDAALQAKKTRVSDPISTSESSEEEEEAEAETAKATPRLASTNSSVLGADLPSSMKEKAKAETEKAGKTGNSMPHPATGKTVANLLSGKSPRKSAEPSANTTLVSETEEEGSVPAFGAAAKPGMVSAGQADSSSEDTSSSSDETDVEGKPSVKPAQVKASSVSTKESPARKAAPAPGKVGDVTPQVKGGALPPAKRAKKPEEESESSEEGSESEEEAPAGTRSQVKASEKILQVRAASAPAKGTPGKGATPAPPGKAGAVASQTKAGKPEEDSESSSEESSDSEEETPAAKALLQAKASGKTSQVGAASAPAKESPRKGAAPAPPGKTGPAVAKAQAGKREEDSQSSSEESDSEEEAPAQAKPSGKAPQVRAASAPAKESPRKGAAPAPPRKTGPAAAQVQVGKQEEDSRSSSEESDSDREALAAMNAAQVKPLGKSPQVKPASTMGMGPLGKGAGPVPPGKVGPATPSAQVGKWEEDSESSSEESSDSSDGEVPTAVAPAQEKSLGNILQAKPTSSPAKGPPQKAGPVAVQVKAEKPMDNSESSEESSDSADSEEAPAAMTAAQAKPALKIPQTKACPKKTNTTASAKVAPVRVGTQAPRKAGTATSPAGSSPAVAGGTQRPAEDSSSSEESDSEEEKTGLAVTVGQAKSVGKGLQVKAASVPVKGSLGQGTAPVLPGKTGPTVTQVKAEKQEDSESSEEESDSEEAAASPAQVKTSVKKTQAKANPAAARAPSAKGTISAPGKVVTAAAQAKQRSPSKVKPPVRNPQNSTVLARGPASVPSVGKAVATAAQAQTGPEEDSGSSEEESDSEEEAETLAQVKPSGKTHQIRAALAPAKESPRKGAAPTPPGKTGPSAAQAGKQDDSGSSSEESDSDGEAPAAVTSAQVIKPPLIFVDPNRSPAGPAATPAQAQAASTPRKARASESTARSSSSESEDEDVIPATQCLTPGIRTNVVTMPTAHPRIAPKASMAGASSSKESSRISDGKKQEGPATQVSKKNPASLPLTQAALKVLAQKASEAQPPVARTQPSSGVDSAVGTLPATSPQSTSVQAKGTNKLRKPKLPEVQQATKAPESSDDSEDSSDSSSGSEEDGEGPQGAKSAHTLGPTPSRTETLVEETAAESSEDDVVAPSQSLLSGYMTPGLTPANSQASKATPKLDSSPSVSSTLAAKDDPDGKQEAKPQQAAGMLSPKTGGKEAASGTTPQKSRKPKKGAGNPQASTLALQSNITQCLLGQPWPLNEAQVQASVVKVLTELLEQERKKVVDTTKESSRKGWESRKRKLSGDQPAARTPRSKKKKKLGAGEGGEASVSPEKTSTTSKGKAKRDKASGDVKEKKGKGSLGSQGAKDEPEEELQKGMGTVEGGDQSNPKSKKEKKKSDKRKKDKEKKEKKKKAKKASTKDSESPSQKKKKKKKKTAEQTV
B4: SLC25A22 (endogenous) (protein, UniProt Q9H936 1-323)
chain: MADKQISLPAKLINGGIAGLIGVTCVFPIDLAKTRLQNQQNGQRVYTSMSDCLIKTVRSEGYFGMYRGAAVNLTLVTPEKAIKLAANDFFRHQLSKDGQKLTLLKEMLAGCGAGTCQVIVTTPMEMLKIQLQDAGRIAAQRKILAAQGQLSAQGGAQPSVEAPAAPRPTATQLTRDLLRSRGIAGLYKGLGATLLRDVPFSVVYFPLFANLNQLGRPASEEKSPFYVSFLAGCVAGSAAAVAVNPCDVVKTRLQSLQRGVNEDTYSGILDCARKILRHEGPSAFLKGAYCRALVIAPLFGIAQVVYFLGIAESLLGLLQDPQA

What follows are molecules tested against T1, biotin-labelled PDBAG1 (human (peptide identified in patients' adipose tissue)) (assay: affinity purification with mass spectrometry; biotin-labelled PDBAG1 on streptavidin magnetic beads, incubated overnight at 4°C with MDA-MB-231 / MDA-MB-468 lysate in IP lysis buffer; silver-stained gel strips (around 150 and 30 kDa) analysed by LC–MS; only the target purified).

Row | Molecule | binding
1 | C1QBP (endogenous) (from UniProt Q07021 74-282) | binds
2 | B1 | binds
3 | B2 | binds
4 | B3 | binds
5 | B4 | binds

Results are given in words; binding and its absence hold for the method and conditions named. Binding seen in cells or lysates may run through a third protein. Here binding means that the protein was enriched with, or labelled near, the bait; the list need not be complete.
